# Data: patent EP0986401B1, “P-SELECTIN TRANSLOCATION TO VASCULAR EPITHELIAL LUMEN BY IONIZING RADIATION” (ARCH DEVELOPMENT CORPORATION, priority 1997, dated 1998)
# Tested on: P-selectin
# Experiment: P-selectin translocation in irradiated HUVEC with microtubule or actin agents, confocal immunofluorescence
# Type: cell-based, human
compound,measurement,value
CN[C@H]1CCc2cc(OC)c(OC)c(OC)c2-c2ccc(OC)c(=O)cc21 [colcemid],8-fold increase in P-selectin immunofluorescence on the cell surface,abrogated
same,x-ray induced translocation of P-selectin,inhibited
